Experimental data published in article doi:10.1101/2024.08.26.609654.
These are yes or no findings as the source states them, for the method shown. In cells and extracts the contact can be indirect. Some entries that bind do so weakly or less than the wild type. For part of these data: Sequences can lack the tags named with a protein.

By UniProt entry, the sequences of proteins in these tests, tags left out.
UniProt Q15648: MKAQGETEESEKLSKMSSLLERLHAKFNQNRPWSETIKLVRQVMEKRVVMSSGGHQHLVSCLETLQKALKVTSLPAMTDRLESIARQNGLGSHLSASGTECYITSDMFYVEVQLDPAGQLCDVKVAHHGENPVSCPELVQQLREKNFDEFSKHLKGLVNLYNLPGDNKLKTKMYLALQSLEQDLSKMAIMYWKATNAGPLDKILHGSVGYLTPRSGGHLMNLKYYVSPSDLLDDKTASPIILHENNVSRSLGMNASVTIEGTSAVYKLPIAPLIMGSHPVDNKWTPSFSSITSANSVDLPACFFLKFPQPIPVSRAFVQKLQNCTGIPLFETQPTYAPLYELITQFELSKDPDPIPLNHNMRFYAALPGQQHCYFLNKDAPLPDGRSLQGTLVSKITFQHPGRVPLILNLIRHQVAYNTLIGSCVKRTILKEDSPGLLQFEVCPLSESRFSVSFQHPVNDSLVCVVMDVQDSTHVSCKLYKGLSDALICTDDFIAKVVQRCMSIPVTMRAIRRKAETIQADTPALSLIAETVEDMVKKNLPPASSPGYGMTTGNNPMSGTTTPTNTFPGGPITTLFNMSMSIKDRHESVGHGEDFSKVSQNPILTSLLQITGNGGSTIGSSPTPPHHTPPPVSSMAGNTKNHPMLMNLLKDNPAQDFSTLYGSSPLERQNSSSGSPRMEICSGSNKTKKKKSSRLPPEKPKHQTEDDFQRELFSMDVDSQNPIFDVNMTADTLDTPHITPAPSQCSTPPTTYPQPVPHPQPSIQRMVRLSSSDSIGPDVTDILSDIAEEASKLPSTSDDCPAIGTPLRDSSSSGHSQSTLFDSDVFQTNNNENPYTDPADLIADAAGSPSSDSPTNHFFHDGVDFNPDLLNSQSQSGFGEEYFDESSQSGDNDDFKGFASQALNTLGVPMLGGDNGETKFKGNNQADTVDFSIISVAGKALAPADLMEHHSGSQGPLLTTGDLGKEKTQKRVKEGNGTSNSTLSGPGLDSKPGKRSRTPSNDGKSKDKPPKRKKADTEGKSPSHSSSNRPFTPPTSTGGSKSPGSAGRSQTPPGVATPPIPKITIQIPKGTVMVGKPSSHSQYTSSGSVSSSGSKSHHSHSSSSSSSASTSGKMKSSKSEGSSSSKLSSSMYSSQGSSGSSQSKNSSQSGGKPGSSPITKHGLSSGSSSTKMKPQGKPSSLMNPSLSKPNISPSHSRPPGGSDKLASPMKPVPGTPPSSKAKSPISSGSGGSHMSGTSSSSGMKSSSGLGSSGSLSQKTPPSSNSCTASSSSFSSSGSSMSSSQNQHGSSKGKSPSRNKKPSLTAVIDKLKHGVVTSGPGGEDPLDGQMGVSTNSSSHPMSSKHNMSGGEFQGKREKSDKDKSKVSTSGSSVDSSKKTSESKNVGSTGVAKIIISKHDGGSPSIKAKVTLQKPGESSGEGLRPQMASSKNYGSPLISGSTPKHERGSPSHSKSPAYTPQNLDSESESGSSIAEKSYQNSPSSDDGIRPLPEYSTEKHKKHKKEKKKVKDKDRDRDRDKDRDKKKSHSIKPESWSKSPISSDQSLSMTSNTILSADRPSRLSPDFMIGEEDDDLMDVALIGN
UniProt P50750: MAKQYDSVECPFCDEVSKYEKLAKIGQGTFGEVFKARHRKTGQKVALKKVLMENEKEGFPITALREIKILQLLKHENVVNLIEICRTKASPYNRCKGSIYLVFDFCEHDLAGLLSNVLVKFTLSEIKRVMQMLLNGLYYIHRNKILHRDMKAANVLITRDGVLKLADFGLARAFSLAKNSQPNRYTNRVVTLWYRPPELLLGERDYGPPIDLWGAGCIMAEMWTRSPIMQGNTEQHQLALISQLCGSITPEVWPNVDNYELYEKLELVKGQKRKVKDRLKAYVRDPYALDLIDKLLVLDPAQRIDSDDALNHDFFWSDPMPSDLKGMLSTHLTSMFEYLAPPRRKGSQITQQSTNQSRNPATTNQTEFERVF
UniProt P24863: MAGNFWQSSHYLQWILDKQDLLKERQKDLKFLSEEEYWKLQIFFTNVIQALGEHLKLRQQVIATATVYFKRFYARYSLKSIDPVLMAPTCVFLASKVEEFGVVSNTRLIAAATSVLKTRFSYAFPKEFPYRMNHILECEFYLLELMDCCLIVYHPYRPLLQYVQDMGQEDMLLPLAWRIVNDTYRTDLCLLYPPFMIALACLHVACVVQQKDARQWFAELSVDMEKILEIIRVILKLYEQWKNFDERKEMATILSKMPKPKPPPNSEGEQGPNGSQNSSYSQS

Legend:
[1] = target: T1, 3×Flag-MED26 (UniProt O95402); assay: co-IP
T1 sequence: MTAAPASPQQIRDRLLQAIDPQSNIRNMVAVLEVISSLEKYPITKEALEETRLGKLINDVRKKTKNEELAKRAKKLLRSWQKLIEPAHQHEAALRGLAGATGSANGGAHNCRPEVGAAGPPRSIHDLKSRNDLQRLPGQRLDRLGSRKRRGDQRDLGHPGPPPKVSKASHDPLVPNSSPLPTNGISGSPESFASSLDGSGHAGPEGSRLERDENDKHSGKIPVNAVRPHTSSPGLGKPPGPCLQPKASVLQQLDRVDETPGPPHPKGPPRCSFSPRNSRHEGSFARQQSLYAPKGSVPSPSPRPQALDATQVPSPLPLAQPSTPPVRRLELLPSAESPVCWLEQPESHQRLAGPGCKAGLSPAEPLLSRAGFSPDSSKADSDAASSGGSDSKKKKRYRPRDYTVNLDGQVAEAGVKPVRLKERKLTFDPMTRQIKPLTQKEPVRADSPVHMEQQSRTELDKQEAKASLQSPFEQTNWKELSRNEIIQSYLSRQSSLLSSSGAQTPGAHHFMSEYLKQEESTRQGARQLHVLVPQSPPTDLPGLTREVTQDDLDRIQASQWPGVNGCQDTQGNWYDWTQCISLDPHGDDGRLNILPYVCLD

[2] = target: 3×Flag-MED1 (UniProt Q15648); assay: co-IP

Q: For CDK9 (from UniProt P50750 1-372), which binding [1] is on record?
A: binds

Q: What about the binding [2] of the same substance?
A: binds

Q: For CCNC1 (from UniProt P24863 1-283), which binding [2] is on record?
A: binds
